± gives the standard deviation of the averaged measurements. The list shows a part of the results, in another mix than the full data.
Columns and labels:
Test in all cases: NP40-soluble protein abundance relative to vehicle (solubility fold change) (ratio); higher = more soluble protein in presence of AMP-PNP
[1] = molecular target: T1, I3L1Q3 and related entries (UniProt Q8TE02)
T1 sequence (whole entry): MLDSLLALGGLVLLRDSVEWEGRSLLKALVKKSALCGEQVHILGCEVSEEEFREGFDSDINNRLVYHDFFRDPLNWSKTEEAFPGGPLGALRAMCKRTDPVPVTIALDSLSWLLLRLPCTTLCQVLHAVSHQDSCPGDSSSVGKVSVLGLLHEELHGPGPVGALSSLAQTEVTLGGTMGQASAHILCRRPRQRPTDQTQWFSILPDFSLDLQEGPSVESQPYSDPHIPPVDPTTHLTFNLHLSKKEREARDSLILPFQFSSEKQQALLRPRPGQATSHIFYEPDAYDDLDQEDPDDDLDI
How it was run: (§1)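 Each value is a fold change relative to the detergent-processed vehicle, calculated per replicate from vsn-normalised intensities. Jurkat crude lysate received eight concentrations (0.1 to 10 mM) for 10 min at room temperature and 3 min at 37 °C, then was solubilised in 0.8% NP40 with benzonase (60 min, 4 °C). The ultracentrifuged supernatant was TMT-labelled and run by LC-MS/MS in three independent experiments.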

[2] = molecular target: T2, I3L2N2 and related entries (UniProt O14641)
T2 sequence (whole entry): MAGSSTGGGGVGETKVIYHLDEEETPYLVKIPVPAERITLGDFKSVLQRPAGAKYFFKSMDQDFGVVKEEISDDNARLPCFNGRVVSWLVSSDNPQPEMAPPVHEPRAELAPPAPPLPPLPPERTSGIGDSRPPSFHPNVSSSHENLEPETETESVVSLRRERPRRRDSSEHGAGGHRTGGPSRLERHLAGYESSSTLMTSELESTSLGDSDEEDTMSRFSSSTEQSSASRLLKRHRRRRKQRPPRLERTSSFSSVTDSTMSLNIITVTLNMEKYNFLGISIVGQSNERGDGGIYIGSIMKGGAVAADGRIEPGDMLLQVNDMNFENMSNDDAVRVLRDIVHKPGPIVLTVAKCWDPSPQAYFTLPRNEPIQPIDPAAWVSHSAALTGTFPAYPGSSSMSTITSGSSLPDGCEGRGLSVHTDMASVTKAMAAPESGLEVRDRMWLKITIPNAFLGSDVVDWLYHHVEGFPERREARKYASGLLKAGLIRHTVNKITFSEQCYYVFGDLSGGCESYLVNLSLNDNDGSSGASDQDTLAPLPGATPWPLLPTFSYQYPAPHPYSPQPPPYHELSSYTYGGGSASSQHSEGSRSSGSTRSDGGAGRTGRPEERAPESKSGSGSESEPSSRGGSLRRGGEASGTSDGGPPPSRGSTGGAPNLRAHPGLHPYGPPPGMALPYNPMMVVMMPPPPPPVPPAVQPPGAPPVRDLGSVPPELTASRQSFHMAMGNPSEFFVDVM
How it was run: as §1

J3KNF4 = molecular target: T3, J3KNF4 (UniProt O14618)
T3 sequence (whole entry): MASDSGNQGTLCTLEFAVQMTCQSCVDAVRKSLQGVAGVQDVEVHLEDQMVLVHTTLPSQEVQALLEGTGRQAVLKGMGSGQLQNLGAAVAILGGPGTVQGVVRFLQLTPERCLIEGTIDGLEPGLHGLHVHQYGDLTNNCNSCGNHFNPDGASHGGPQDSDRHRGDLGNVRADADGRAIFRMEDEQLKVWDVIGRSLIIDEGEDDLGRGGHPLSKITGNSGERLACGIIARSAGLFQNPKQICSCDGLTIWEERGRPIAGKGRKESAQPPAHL
How it was run: as §1

[3] = molecular target: T4, J3KNG8 and related entries (UniProt Q8TF40)
T4 sequence (whole entry): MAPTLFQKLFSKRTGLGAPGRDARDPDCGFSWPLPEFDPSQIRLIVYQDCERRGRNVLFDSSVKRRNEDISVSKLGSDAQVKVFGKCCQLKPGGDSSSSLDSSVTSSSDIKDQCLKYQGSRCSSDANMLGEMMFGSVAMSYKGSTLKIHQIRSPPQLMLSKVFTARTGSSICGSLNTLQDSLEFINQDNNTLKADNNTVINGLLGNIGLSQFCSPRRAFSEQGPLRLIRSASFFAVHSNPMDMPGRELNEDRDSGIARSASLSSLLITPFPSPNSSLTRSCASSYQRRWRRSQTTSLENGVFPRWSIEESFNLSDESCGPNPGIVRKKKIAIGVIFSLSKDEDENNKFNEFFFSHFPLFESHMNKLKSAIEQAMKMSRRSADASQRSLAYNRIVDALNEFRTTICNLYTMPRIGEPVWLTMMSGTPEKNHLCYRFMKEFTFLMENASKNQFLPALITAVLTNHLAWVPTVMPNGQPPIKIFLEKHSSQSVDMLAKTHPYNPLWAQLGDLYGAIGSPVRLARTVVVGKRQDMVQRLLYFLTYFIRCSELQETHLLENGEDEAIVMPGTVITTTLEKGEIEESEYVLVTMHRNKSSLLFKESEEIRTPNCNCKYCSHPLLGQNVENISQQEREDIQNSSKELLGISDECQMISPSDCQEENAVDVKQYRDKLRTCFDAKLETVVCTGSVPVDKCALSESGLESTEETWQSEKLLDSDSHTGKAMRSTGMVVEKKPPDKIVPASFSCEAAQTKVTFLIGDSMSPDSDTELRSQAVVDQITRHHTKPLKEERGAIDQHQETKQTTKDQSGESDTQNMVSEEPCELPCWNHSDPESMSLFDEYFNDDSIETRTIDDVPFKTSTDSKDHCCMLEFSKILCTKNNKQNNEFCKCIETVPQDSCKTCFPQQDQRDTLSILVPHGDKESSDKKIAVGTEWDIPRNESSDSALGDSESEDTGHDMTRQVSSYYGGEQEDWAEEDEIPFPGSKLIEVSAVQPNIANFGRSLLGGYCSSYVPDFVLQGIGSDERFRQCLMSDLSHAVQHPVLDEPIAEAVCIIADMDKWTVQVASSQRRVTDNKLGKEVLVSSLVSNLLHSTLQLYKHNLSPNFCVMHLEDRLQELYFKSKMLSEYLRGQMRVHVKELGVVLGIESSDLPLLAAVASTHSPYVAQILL
How it was run: as §1

[4] = molecular target: T5, J3KPD3 and related entries (UniProt Q9Y580)
T5 sequence (whole entry): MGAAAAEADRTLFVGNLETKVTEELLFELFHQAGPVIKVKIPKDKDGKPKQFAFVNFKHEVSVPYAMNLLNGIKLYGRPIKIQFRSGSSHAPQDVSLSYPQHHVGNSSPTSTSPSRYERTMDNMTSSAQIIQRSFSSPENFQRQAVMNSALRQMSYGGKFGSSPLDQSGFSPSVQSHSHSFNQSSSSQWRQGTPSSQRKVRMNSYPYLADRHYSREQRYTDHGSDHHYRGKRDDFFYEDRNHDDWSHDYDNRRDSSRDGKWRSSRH
How it was run: as §1

Question: For Nc1ncnc2c1ncn2[C@@H]1O[C@H](COP(=O)(O)OP(=O)(O)NP(=O)(O)O)[C@@H](O)[C@H]1O [adenylyl imidodiphosphate], which NP40-soluble protein abundance ([1]; concentration: 6mM) is on record?
Answer: 0.956 ± 0.037

Question: What about the NP40-soluble protein abundance ([1]; concentration: 8mM) of the same compound?
Answer: 0.967 ± 0.065

Question: What about the NP40-soluble protein abundance ([1]; concentration: 10mM) of the same compound?
Answer: 0.96 ± 0.038

Question: And the NP40-soluble protein abundance ([2]; concentration: 1mM)?
Answer: 1.01 ± 0.03

Question: What about the NP40-soluble protein abundance ([2]; concentration: 2mM) of the same compound?
Answer: 1.03 ± 0.013

Question: And the NP40-soluble protein abundance ([2]; concentration: 4mM)?
Answer: 0.99 ± 0.018

Question: And the NP40-soluble protein abundance ([2]; concentration: 6mM)?
Answer: 0.961 ± 0.051

Question: What about the NP40-soluble protein abundance ([2]; concentration: 8mM) of the same compound?
Answer: 0.922 ± 0.027

Question: And the NP40-soluble protein abundance ([2]; concentration: 10mM)?
Answer: 0.948 ± 0.041

Question: What about the NP40-soluble protein abundance (J3KNF4; concentration: 1mM) of the same compound?
Answer: 1.03 ± 0.026

Question: What about the NP40-soluble protein abundance (J3KNF4; concentration: 2mM) of the same compound?
Answer: 1.04 ± 0.031

Question: And the NP40-soluble protein abundance (J3KNF4; concentration: 4mM)?
Answer: 0.997 ± 0.064

Question: What about the NP40-soluble protein abundance (J3KNF4; concentration: 6mM) of the same compound?
Answer: 0.973 ± 0.027

Question: And the NP40-soluble protein abundance (J3KNF4; concentration: 8mM)?
Answer: 0.949 ± 0.027

Question: And the NP40-soluble protein abundance (J3KNF4; concentration: 10mM)?
Answer: 0.954 ± 0.082

Question: And the NP40-soluble protein abundance ([3]; concentration: 1mM)?
Answer: 0.976 ± 0.036

Question: What about the NP40-soluble protein abundance ([3]; concentration: 2mM) of the same compound?
Answer: 0.989 ± 0.027

Question: And the NP40-soluble protein abundance ([3]; concentration: 4mM)?
Answer: 0.978 ± 0.014

Question: What about the NP40-soluble protein abundance ([3]; concentration: 6mM) of the same compound?
Answer: 0.967 ± 0.043

Question: What about the NP40-soluble protein abundance ([3]; concentration: 8mM) of the same compound?
Answer: 0.9777 ± 0.0046

Question: And the NP40-soluble protein abundance ([3]; concentration: 10mM)?
Answer: 0.976 ± 0.022

Question: And the NP40-soluble protein abundance ([4]; concentration: 1mM)?
Answer: 0.97 ± 0.069

Question: What about the NP40-soluble protein abundance ([4]; concentration: 2mM) of the same compound?
Answer: 0.99 ± 0.029

Question: And the NP40-soluble protein abundance ([4]; concentration: 4mM)?
Answer: 0.973 ± 0.051

Question: And the NP40-soluble protein abundance ([4]; concentration: 6mM)?
Answer: 0.989 ± 0.077

Source: the supplement of paper PMC6411743
